Results reported in the supplement of paper PMC11732987, “Enantioselective OTUD7B fragment discovery through chemoproteomics screening and high-throughput optimisation” (Communications Chemistry, 2025).
The other results are listed elsewhere or left out. The data scatter; read single values as rough.

Protein sequences, listed by entry. Tags and fused reporters are not part of them. Lines headed by an entry give the natural chain unless they say otherwise; changes in a name come on top. Residues count along the entry.
UniProt Q15154, 886-914: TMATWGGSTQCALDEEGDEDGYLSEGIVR
UniProt Q9UQ80: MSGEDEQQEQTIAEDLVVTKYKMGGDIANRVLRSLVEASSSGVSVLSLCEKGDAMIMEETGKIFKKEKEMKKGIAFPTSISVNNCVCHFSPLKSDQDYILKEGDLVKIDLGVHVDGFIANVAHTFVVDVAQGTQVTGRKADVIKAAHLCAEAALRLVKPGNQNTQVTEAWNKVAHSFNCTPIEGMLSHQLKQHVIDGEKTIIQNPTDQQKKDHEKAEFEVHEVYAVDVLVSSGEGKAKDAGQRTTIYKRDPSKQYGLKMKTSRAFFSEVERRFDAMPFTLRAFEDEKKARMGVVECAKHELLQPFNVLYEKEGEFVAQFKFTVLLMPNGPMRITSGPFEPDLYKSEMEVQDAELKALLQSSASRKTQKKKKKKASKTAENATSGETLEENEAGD
UniProt Q9NVE7: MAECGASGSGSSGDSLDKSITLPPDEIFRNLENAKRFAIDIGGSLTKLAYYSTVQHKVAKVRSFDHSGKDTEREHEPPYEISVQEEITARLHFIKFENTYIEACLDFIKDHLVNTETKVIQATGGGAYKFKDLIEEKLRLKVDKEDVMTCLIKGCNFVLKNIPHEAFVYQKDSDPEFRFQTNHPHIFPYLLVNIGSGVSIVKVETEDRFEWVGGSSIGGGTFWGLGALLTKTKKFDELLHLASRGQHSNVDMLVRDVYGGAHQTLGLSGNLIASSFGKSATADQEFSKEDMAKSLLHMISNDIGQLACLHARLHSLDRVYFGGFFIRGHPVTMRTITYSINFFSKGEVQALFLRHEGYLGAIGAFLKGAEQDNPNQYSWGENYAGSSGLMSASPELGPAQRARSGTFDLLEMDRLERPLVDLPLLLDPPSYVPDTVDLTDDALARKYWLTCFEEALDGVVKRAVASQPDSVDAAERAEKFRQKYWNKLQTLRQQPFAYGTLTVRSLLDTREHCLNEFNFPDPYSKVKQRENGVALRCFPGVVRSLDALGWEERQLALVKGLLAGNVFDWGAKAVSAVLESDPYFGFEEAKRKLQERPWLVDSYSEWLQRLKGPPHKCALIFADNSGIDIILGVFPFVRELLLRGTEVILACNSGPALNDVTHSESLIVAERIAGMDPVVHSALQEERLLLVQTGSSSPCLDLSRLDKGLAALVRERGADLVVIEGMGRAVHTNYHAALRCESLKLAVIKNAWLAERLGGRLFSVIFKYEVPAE
UniProt Q6ZW49, whole entry, looked up: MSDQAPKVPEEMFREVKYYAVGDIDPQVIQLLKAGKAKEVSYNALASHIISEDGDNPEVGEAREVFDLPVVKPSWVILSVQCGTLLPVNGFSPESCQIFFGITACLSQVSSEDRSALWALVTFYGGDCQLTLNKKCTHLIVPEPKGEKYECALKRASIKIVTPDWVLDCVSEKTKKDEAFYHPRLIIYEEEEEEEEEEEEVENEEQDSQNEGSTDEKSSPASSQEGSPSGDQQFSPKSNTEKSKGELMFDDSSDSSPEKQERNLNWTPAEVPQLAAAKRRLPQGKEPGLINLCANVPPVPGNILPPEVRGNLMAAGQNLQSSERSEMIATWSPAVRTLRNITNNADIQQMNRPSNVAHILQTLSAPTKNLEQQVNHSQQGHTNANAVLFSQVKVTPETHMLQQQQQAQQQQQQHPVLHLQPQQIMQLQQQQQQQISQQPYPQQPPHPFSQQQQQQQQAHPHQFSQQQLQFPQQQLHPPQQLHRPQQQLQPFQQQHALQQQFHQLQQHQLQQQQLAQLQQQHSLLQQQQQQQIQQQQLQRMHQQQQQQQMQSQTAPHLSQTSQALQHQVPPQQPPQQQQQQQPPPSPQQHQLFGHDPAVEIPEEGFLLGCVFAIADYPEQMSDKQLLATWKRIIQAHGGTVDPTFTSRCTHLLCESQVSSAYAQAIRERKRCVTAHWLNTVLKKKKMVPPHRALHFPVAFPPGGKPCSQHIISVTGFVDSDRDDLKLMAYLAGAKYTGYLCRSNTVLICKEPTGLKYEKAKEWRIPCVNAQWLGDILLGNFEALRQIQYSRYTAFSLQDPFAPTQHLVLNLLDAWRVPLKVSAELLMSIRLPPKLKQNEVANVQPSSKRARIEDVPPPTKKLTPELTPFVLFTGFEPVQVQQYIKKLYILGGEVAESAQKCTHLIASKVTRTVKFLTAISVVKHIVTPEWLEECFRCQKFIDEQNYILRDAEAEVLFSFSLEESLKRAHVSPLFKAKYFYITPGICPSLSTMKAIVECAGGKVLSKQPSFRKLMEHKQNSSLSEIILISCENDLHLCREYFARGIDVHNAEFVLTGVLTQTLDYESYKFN
UniProt P11177, whole entry, looked up: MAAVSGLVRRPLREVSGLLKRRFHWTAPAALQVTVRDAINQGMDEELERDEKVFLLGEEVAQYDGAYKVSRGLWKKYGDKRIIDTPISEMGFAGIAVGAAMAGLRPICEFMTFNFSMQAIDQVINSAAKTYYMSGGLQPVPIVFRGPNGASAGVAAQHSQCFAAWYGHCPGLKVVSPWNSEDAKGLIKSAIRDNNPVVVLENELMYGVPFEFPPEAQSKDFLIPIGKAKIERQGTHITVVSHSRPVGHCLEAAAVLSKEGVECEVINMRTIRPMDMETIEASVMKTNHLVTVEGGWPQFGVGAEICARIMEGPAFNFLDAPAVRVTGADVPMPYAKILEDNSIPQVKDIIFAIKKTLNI
UniProt O00541: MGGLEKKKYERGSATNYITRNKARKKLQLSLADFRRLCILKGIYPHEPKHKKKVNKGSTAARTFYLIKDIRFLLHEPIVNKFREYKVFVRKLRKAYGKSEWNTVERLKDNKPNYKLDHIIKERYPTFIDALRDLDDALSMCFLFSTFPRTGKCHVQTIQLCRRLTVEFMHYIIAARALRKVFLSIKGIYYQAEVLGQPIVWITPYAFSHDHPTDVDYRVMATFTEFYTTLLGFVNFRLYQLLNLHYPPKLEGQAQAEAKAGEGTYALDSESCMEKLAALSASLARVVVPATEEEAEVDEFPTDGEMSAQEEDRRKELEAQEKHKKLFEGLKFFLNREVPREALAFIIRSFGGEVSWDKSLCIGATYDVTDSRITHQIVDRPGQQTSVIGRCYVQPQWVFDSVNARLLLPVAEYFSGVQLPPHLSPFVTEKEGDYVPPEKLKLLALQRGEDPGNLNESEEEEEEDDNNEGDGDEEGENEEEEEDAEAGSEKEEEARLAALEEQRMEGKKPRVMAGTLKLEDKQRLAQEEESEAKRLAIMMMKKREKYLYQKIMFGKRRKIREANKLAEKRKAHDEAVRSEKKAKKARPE
UniProt Q6P996, 438-458: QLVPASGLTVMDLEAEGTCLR
UniProt O60825: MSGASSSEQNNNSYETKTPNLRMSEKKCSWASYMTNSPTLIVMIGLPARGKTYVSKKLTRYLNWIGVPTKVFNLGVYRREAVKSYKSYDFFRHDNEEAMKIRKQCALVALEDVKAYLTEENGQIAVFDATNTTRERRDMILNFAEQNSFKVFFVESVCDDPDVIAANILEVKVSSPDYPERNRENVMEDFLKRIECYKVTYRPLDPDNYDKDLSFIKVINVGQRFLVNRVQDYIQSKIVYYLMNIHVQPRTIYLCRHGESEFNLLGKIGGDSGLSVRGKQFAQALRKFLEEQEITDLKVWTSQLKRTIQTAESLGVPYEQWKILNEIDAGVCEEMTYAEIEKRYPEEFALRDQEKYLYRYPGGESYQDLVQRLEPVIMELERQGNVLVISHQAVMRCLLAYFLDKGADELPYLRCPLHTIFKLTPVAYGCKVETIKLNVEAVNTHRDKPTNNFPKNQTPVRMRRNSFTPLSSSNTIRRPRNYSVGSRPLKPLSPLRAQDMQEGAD
UniProt Q9H4Z3, 246-265: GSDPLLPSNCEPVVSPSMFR
UniProt Q8WUB8, 56-78: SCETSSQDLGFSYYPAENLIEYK
UniProt Q8WX93: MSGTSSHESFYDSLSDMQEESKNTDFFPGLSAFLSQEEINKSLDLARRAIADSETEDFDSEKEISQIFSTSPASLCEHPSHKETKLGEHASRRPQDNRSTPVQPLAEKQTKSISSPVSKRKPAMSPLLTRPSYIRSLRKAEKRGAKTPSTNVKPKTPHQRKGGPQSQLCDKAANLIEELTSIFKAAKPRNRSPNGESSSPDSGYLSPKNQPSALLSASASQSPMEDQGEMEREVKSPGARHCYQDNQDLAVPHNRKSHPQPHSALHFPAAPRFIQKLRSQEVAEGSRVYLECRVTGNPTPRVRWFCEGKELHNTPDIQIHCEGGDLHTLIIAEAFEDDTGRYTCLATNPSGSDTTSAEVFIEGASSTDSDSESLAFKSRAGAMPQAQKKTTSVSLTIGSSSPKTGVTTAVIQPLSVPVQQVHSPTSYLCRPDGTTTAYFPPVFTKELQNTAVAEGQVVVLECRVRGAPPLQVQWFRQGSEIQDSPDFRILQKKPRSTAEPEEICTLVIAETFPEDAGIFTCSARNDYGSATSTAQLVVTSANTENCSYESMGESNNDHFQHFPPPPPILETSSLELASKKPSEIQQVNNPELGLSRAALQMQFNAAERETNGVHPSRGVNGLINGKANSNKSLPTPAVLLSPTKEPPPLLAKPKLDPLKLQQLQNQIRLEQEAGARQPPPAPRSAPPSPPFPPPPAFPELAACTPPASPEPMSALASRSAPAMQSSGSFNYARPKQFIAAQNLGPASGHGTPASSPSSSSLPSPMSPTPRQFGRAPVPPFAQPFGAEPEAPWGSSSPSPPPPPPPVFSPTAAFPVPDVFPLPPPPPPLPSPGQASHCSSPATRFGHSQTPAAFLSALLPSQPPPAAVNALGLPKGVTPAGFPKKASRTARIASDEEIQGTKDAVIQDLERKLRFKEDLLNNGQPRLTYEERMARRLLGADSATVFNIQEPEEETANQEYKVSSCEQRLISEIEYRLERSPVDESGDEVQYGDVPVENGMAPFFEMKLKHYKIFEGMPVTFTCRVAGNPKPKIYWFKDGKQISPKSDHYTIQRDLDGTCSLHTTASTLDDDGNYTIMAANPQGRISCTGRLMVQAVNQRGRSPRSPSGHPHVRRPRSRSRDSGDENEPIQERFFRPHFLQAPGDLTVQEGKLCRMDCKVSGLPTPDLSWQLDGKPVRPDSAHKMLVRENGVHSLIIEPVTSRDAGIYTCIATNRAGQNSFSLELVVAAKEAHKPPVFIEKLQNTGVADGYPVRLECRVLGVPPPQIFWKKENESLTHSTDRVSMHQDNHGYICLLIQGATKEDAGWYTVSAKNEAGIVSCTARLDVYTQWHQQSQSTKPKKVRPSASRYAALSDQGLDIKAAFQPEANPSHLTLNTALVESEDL
UniProt Q9H8K7: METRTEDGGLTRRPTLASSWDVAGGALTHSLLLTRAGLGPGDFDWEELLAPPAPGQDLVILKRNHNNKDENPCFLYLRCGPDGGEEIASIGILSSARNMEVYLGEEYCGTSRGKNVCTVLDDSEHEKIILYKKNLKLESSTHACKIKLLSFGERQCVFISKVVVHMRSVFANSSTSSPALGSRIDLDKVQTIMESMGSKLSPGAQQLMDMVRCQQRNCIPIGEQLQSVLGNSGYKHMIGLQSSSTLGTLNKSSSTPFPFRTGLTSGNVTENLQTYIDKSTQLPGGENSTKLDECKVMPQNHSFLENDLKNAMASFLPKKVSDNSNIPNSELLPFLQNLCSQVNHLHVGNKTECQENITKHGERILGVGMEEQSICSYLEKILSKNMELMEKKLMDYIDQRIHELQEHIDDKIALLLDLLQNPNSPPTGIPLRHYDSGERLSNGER
UniProt Q8WZ82: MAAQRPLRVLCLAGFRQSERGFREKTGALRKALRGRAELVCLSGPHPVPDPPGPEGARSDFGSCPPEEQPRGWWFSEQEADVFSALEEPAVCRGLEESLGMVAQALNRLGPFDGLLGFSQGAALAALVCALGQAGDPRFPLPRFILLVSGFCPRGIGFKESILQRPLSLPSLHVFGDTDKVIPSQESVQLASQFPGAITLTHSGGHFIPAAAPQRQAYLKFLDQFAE

Assays:
[1] = compound: ClCC(=O)N[C@@H]1CCCc2ccccc12; assay: log2 mean competition ratio of IA-DTB cysteine labelling (DMSO/compound) (log2 ratio); higher = stronger cysteine engagement by compound; settings: treatment time: 4 h, cell line lysate: HEK293T
Procedure: (§1)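 IA-DTB competitive cysteine chemoproteomics in HEK293T RIPA lysate. Lysates were treated with compound 29 or 30 at 50 or 200 µM for 4 h, then IA-DTB (500 µM, 1 h), trypsin-digested, NeutrAvidin-enriched and analysed by diaPASEF. Competition ratio = intensity DMSO / intensity compound (n=4 treated, n=64 DMSO); binding: mean log2 CR ≥ 1 and p ≤ 0.05 plus QC filters. Target is the cysteine site.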

[2] = compound: ClCC(=O)N[C@H]1CCCc2ccccc12; assay: as above; settings: treatment time: 4 h, cell line lysate: HEK293T
Procedure: as §1

| Target | log2 mean competition ratio ([1]; 50 µM) | log2 mean competition ratio ([1]; 200 µM) | log2 mean competition ratio ([2]; 50 µM) | log2 mean competition ratio ([2]; 200 µM) |
| --- | --- | --- | --- | --- |
| PCM1 C896 (UniProt Q15154) | -0.288 | 0.0625 | 0.287 | 0.66 |
| PARD3 C323 (UniProt Q8TEW0) | -0.0309 | -0.314 | 0.0183 | -0.02 |
| PA2G4 C149 (UniProt Q9UQ80) | 0.27 | 0.689 | 0.197 | 0.169 |
| PANK4 C150 (UniProt Q9NVE7) | -0.168 | 0.107 | -0.691 | -0.317 |
| PAXIP1 C997 (UniProt Q6ZW49) | -0.0555 | 0.125 | 0.202 | 0.125 |
| PDHB C263 (UniProt P11177) | -0.255 | -0.239 | -0.0764 | -0.198 |
| PES1 C361 (UniProt O00541) | 0.549 | 0.16 | 0.745 | 0.0975 |
| PDXDC1 C481 (UniProt Q6P996) | -0.144 | -0.0985 | -0.133 | 0.0478 |
| PALS2 C432 | -0.237 | -0.0523 | -0.479 | -0.104 |
| PDXDC1 C456 (UniProt Q6P996) | -0.0163 | 0.039 | 0.141 | 0.263 |
| PFAS C606 (UniProt O15067) | 0.413 | 0.178 | 0.492 | 0.0365 |
| PARD3 C16 (UniProt Q8TEW0) | 0.185 | -0.192 | 0.12 | -0.181 |
| PFKFB2 C105 (UniProt O60825) | -0.0909 | -0.0267 | -0.249 | 0.0192 |
| PAXIP1 C740 (UniProt Q6ZW49) | 0.0619 | -0.159 | -0.472 | -0.105 |
| PFAS C1027 (UniProt O15067) | -0.129 | -0.161 | 0.126 | -0.0651 |
| PCIF1 C361 (UniProt Q9H4Z3) | -0.291 | -0.58 | -0.468 | -0.184 |
| PAPOLA C677 | -0.462 | 0.0469 | -0.539 | -0.0284 |
| PHF10 C57 (UniProt Q8WUB8) | 0.341 | 0.197 | 0.684 | -0.184 |
| PALLD C1319 (UniProt Q8WX93) | 0.00566 | -0.351 | 0.254 | -0.496 |
| PCIF1 C255 (UniProt Q9H4Z3) | -0.137 | -0.0936 | -0.259 | 0.0717 |
| PAAT C353 (UniProt Q9H8K7) | 0.101 | -0.142 | -0.121 | -0.0553 |
| OVCA2 C64 (UniProt Q8WZ82) | 0.0768 | -0.365 | 0.0817 | -0.32 |

Another view of some results above.
Target | log2 mean competition ratio ([1]; 50 µM) | log2 mean competition ratio ([1]; 200 µM) | log2 mean competition ratio ([2]; 50 µM) | log2 mean competition ratio ([2]; 200 µM)
PDXDC1 C481 (UniProt Q6P996) | -0.144 | -0.0985 | -0.133 | 0.0478
PALS2 C432 | -0.237 | -0.0523 | -0.479 | -0.104
